No constants are given. Whether binding was seen depends on the method and setting. Some binding calls cover weakened binding; strength is not graded here.
Experiments:
[1] = target: T1, Fragment 1A peptide (human); experiment: blocking of flow cytometry staining, 10:1
T1 sequence (peptide): GSSPRSGVLLRGCPTH

[2] = target: T1, Fragment 1A peptide (human); experiment: peptide blocking of immunofluorescence staining
[3] = target: T1, Fragment 1A peptide (human); experiment: peptide blocking of internalisation by LoVo cells
[4] = target: T1, Fragment 1A peptide (human); experiment: peptide blocking of internalisation by NALM6 cells
[5] = target: T1, Fragment 1A peptide (human); experiment: peptide blocking of flow cytometry staining of LoVo cells
[6] = target: T1, Fragment 1A peptide (human); experiment: peptide blocking, flow cytometry of HEK293T cells expressing LGR5-eGFP
α-LGR5 clone 2 [7] = experiment: blocking: Fl-α-LGR5 pre-incubated with the peptide, then flow cytometry on HEK293T cells (blocked ligand: hLGR5-eGFP)
α-LGR5 clone 2 [8] = experiment: blocking: Fl-α-LGR5 pre-incubated with the peptide, then flow cytometry on LoVo cells (blocked ligand: endogenous LGR5)
α-LGR5 clone 2 [9] = experiment: blocking: fluorescent clone 2 pre-incubated with the peptide, then immunofluorescence on HEK293T cells (blocked ligand: hLGR5-eGFP)

Measured: binding

B1: α-LGR5 clone 2 (antibody, mouse IgG2b, kappa, V domains shown)
VH: QVQLQQPGAELVKPGASVKLSCKASGYTFTNYWMQWVKQRPGQGLEWIGEIDPSDSYTNYNQKFKGKATLTVDTSSSTAYMQLSSLTSEDSAVYYCARSLSGYVDYWGQGTTLTVSS
VL: DIQMTQTTSSLSASLGDRVTISCRASQDISNRLNWYQQKPDGTVKLLISYRSRLHSGVPSRFSGSGSGTDYSLTISNLEQEDIATYFCQQGNSLPPTFGGGTKLEVRR
not listed: α-LGR5 clone 2 [7] | α-LGR5 clone 2 [8] | α-LGR5 clone 2 [9]
binds: all other assays above

B2: Fragment 1A peptide (peptide)
peptide: GSSPRSGVLLRGCPTH
binds: α-LGR5 clone 2 [7] | α-LGR5 clone 2 [8] | α-LGR5 clone 2 [9]
